Data source: PubChem BioAssay AID1259405 (NCATS, 2018)

Test: 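Silenced genes that increase secreted GFP made by CHO cells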 (primary screen)
Cell system: Chinese hamster CHO-K1 ovary cells with stable secreted eGFP expression
Reagent: single siRNA against mouse genes, 0.8 pmol siRNA per well (2 µl of 400 nM stock)
Time to read-out: 3 days
Measurement: 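Percent of the per-plate non-targeting control median for intracellular GFP per well by laser scanning cytometry and for cell viability by ATP luminescence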
Reading the numbers: GFP, % of control: higher = more GFP per well, higher productivity; viability (ATP), % of control: higher = more viable cells (more ATP)
Rule for the call: 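Called active when intracellular GFP, relative to negative control, is at or above 120%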
The whole screen tested about 50,000 reagents; this is a random part of them. About 4,000 of all reagents (8%) were called active. 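Mouse siRNA library applied to hamster cells; one well for each siRNA.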 A number with no mark means an inactive call. Reagents against one gene are numbered here.

Pcsk1 (proprotein convertase subtilisin/kexin type 1) #1 — GFP, % of control: 66.2; viability (ATP), % of control: 72.5
Pcsk1 (proprotein convertase subtilisin/kexin type 1) #2 — GFP, % of control: 55.7; viability (ATP), % of control: 50.7
Pcsk1 (proprotein convertase subtilisin/kexin type 1) #3 — GFP, % of control: 65.4; viability (ATP), % of control: 56.8
Plxna4 (plexin A4) #1 — GFP, % of control: 116; viability (ATP), % of control: 99.6
Plxna4 (plexin A4) #2 — GFP, % of control: 95.5; viability (ATP), % of control: 82.4
Plxna4 (plexin A4) #3 — GFP, % of control: 62.2; viability (ATP), % of control: 44.8
Dgat2 (diacylglycerol O-acyltransferase 2) #1 — GFP, % of control: 124 (active); viability (ATP), % of control: 95.3
Dgat2 (diacylglycerol O-acyltransferase 2) #2 — GFP, % of control: 80.6; viability (ATP), % of control: 120
Dgat2 (diacylglycerol O-acyltransferase 2) #3 — GFP, % of control: 126 (active); viability (ATP), % of control: 110
Hectd4 (HECT domain E3 ubiquitin protein ligase 4) #1 — GFP, % of control: 42; viability (ATP), % of control: 82.2
Hectd4 (HECT domain E3 ubiquitin protein ligase 4) #2 — GFP, % of control: 34.9; viability (ATP), % of control: 69.6
Hectd4 (HECT domain E3 ubiquitin protein ligase 4) #3 — GFP, % of control: 71.3; viability (ATP), % of control: 66.3
Upf1 (UPF1 RNA helicase and ATPase) #1 — GFP, % of control: 128 (active); viability (ATP), % of control: 94.7
Upf1 (UPF1 RNA helicase and ATPase) #2 — GFP, % of control: 64.2; viability (ATP), % of control: 70.3
Upf1 (UPF1 RNA helicase and ATPase) #3 — GFP, % of control: 89.2; viability (ATP), % of control: 86.2
Get3 (guided entry of tail-anchored proteins factor 3, ATPase) #1 — GFP, % of control: 94.9; viability (ATP), % of control: 56.9
Get3 (guided entry of tail-anchored proteins factor 3, ATPase) #2 — GFP, % of control: 108; viability (ATP), % of control: 90.9
Get3 (guided entry of tail-anchored proteins factor 3, ATPase) #3 — GFP, % of control: 93; viability (ATP), % of control: 62.7
Polg (polymerase (DNA directed), gamma) #1 — GFP, % of control: 59.7; viability (ATP), % of control: 59.4
Polg (polymerase (DNA directed), gamma) #2 — GFP, % of control: 68.2; viability (ATP), % of control: 51.1
Polg (polymerase (DNA directed), gamma) #3 — GFP, % of control: 86.4; viability (ATP), % of control: 89
Tmem176a (transmembrane protein 176A) #1 — GFP, % of control: 92.4; viability (ATP), % of control: 130
Tmem176a (transmembrane protein 176A) #2 — GFP, % of control: 101; viability (ATP), % of control: 95.2
Tmem176a (transmembrane protein 176A) #3 — GFP, % of control: 192 (active); viability (ATP), % of control: 98.8
Ubqln4 (ubiquilin 4) #1 — GFP, % of control: 92.6; viability (ATP), % of control: 58.7
Ubqln4 (ubiquilin 4) #2 — GFP, % of control: 76.2; viability (ATP), % of control: 97.8
Ubqln4 (ubiquilin 4) #3 — GFP, % of control: 77.4; viability (ATP), % of control: 67.4
Evl (Ena-vasodilator stimulated phosphoprotein) #1 — GFP, % of control: 55.4; viability (ATP), % of control: 71.7
Evl (Ena-vasodilator stimulated phosphoprotein) #2 — GFP, % of control: 82.6; viability (ATP), % of control: 95
Evl (Ena-vasodilator stimulated phosphoprotein) #3 — GFP, % of control: 91; viability (ATP), % of control: 67.3
Or51q1c (olfactory receptor family 51 subfamily Q member 1C) #1 — GFP, % of control: 109; viability (ATP), % of control: 79.1
Or51q1c (olfactory receptor family 51 subfamily Q member 1C) #2 — GFP, % of control: 119; viability (ATP), % of control: 89.9
Or51q1c (olfactory receptor family 51 subfamily Q member 1C) #3 — GFP, % of control: 40.1; viability (ATP), % of control: 78.3
Tenm1 (teneurin transmembrane protein 1) #1 — GFP, % of control: 62.6; viability (ATP), % of control: 34.3
Tenm1 (teneurin transmembrane protein 1) #2 — GFP, % of control: 73.5; viability (ATP), % of control: 90
Tenm1 (teneurin transmembrane protein 1) #3 — GFP, % of control: 59.2; viability (ATP), % of control: 76.4
Foxred1 (FAD-dependent oxidoreductase domain containing 1) #1 — GFP, % of control: 57; viability (ATP), % of control: 53.9
Foxred1 (FAD-dependent oxidoreductase domain containing 1) #2 — GFP, % of control: 73; viability (ATP), % of control: 84.8
Foxred1 (FAD-dependent oxidoreductase domain containing 1) #3 — GFP, % of control: 97.8; viability (ATP), % of control: 100
Clec2g (C-type lectin domain family 2, member g) #1 — GFP, % of control: 81.3; viability (ATP), % of control: 89.9
Clec2g (C-type lectin domain family 2, member g) #2 — GFP, % of control: 63.1; viability (ATP), % of control: 68.1
Clec2g (C-type lectin domain family 2, member g) #3 — GFP, % of control: 70.8; viability (ATP), % of control: 84.9

In a second layout: 5 of the entries above
| gene knocked down | siRNA no. | GFP, % of control | viability (ATP), % of control |
| --- | --- | --- | --- |
| Tmem176a (transmembrane protein 176A) | 2 | 101 | 95.2 |
| Tmem176a (transmembrane protein 176A) | 3 | 192 (active) | 98.8 |
| Ubqln4 (ubiquilin 4) | 1 | 92.6 | 58.7 |
| Ubqln4 (ubiquilin 4) | 2 | 76.2 | 97.8 |
| Ubqln4 (ubiquilin 4) | 3 | 77.4 | 67.4 |
